The target in assay [1] is T1, Myc-EhRdRP2 (E. histolytica) (UniProt C4M631).
T1 sequence: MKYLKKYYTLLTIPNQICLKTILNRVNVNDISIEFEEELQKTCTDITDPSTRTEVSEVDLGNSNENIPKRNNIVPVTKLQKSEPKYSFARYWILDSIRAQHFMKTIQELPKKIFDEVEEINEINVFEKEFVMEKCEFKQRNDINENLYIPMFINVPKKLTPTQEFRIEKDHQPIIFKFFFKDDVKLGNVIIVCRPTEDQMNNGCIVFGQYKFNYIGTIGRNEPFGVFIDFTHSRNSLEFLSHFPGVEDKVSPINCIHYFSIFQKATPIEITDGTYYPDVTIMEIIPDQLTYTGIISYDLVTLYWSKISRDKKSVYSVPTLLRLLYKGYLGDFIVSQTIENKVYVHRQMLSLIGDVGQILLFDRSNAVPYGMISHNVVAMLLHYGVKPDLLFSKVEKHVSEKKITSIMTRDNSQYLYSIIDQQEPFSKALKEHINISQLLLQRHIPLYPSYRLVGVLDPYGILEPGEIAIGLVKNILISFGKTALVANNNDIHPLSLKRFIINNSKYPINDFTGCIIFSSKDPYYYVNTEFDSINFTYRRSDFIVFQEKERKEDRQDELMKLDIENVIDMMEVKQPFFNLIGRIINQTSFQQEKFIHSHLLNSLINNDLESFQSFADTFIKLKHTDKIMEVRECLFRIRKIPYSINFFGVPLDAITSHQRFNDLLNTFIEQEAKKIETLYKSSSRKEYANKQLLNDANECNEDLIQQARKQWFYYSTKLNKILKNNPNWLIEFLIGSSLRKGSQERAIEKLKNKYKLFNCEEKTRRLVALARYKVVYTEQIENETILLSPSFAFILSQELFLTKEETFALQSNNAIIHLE
The assay is described as follows: affinity purification with mass spectrometry; anti-c-Myc agarose IP from whole-cell lysate of E. histolytica lines overexpressing the Myc-tagged bait (EhAgo2-2 WT, its two mutants, EhRdRP1, EhRdRP2), 2 h at 4°C, six low-stringency washes; LC-MS/MS in triplicate; nonribosomal hits in at least 2 of 3 data sets, exclusive or ≥3-fold enriched against the Luc control.

Amino acid sequences for entries named in this document (tags omitted). A change or cut given only in a name is not applied to a line headed by its entry.
UniProt C4LTS8: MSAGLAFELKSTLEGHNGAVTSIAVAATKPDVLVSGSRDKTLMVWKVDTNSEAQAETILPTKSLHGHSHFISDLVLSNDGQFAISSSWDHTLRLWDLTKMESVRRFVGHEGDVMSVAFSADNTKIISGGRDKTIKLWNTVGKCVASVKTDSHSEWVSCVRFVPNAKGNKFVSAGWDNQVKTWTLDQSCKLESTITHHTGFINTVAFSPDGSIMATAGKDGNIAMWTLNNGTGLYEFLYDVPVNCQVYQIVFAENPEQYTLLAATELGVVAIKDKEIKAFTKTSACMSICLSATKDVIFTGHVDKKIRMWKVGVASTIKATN

The target of assay [2] is Myc-GNB2L1 (E. histolytica) (UniProt C4LTS8). The assay is described as follows: affinity purification with mass spectrometry; anti-c-Myc agarose IP from whole-cell lysate of E. histolytica lines overexpressing Myc-NAP07, Myc-NAP12, Myc-EBP-1, Myc-GNB2L1 or Myc-Tudor-like protein; LC-MS/MS in duplicate; hits in both replicates and exclusive against the Luc control.
Assay [3] has as its target T2, Myc-EhRdRP1 (E. histolytica) (UniProt C4M6W7).
T2 sequence: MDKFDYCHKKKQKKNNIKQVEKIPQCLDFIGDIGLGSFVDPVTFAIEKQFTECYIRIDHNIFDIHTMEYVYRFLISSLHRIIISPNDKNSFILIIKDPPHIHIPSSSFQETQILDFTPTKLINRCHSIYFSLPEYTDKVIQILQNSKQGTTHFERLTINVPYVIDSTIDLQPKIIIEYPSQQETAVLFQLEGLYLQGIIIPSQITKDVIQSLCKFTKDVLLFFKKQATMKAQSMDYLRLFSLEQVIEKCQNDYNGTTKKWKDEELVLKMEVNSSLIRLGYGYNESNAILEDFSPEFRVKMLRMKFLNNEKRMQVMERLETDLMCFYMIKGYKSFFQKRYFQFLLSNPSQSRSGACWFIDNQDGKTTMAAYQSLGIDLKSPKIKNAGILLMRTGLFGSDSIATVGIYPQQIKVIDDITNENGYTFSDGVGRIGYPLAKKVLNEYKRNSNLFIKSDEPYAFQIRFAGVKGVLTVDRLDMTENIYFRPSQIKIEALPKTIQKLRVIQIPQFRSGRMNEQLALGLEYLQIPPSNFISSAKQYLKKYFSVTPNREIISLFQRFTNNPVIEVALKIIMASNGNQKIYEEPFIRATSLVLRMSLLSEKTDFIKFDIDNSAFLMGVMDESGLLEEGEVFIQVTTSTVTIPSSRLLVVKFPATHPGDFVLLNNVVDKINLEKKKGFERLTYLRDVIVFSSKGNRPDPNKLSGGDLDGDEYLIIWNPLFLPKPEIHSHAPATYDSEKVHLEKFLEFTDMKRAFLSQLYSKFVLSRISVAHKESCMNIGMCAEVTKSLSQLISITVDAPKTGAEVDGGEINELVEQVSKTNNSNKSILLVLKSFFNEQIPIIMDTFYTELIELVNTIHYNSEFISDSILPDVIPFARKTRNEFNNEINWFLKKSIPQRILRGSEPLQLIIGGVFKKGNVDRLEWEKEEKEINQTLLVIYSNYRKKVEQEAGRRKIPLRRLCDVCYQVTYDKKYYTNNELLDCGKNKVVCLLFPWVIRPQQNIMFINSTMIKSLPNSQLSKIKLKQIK
The assay is described as follows: affinity purification with mass spectrometry; anti-c-Myc agarose IP from whole-cell lysate of E. histolytica lines overexpressing the Myc-tagged bait (EhAgo2-2 WT, its two mutants, EhRdRP1, EhRdRP2), 2 h at 4°C, six low-stringency washes; LC-MS/MS in triplicate; nonribosomal hits in at least 2 of 3 data sets, exclusive or ≥3-fold enriched against the Luc control.

The target of assay [4] is T1, Myc-EhRdRP2 (E. histolytica). Described as above. This is another data set of the same source.

This note sets out measurements from PMC8546589.

Where two headings read alike, the source gives them in different places. These are yes or no findings as the source states them, for the method shown. In cells and extracts the contact can be indirect. These calls come from enrichment with a bait or labelling near it, and not all partners need be listed. For some of these results: Where a sequence is shown, tags or fusion partners need not be part of it.

“guanine nucleotide-binding protein subunit beta 2-like 1 (endogenous) (from UniProt C4LTS8)”: in assay [1], the binding result is listed as “binds”.

B1: enhancer binding protein-1 (endogenous) (protein, UniProt C4M5C4 1-306)
chain: MTTLYVSHLDYSLKVEDVQNAFKTYNPKEVKIISTPIGYSRGFAFIEFATPQEAEKALEMDRHTIGKMEIKVQKALPKEETTTERKMNRRGFKGKRNTRKRHLVKRTNEVTDNMLFIKNLPFAITEEKLKEMFSKFGVVEITLIKTHRKKGNVTKNNGIAFITVKTAEEQKKAIAEMNNFEVEGRKITVAAAYKKVENKQTTKKTNEPKSLSETNVFVKNLPFTLTDEGFKKLFEKYDVVEATIVKRHNKKLNVDRSKGYGFVTFKTAEQQKKAIAEMDNFEVEGRKITVTSAYQRAEKKEETTSN
For the molecule B1, the binding result in assay [2], in assay [3] and in assay [4] was “binds” throughout.
